The values that follow come from patent publication US10413593B2 (priority 2014, dated 2019).

Data set [1] can be described thus: general procedure: Fmoc solid-phase peptide synthesis; Rink-amide PEG-PS resin, Champion (Biosearch Technologies, 0.28 mmol/g); Rink-amide PS (0.47 mmol/g); Rink-amide PEG-AM; HATU/DIEA with HOBt; DIPC/HOAt for manual couplings. Particulars: whole synthesis; for final HPLC purity: Acquity UPLC Waters, BEH300 C4, scale of the general procedure 150 μmol; for isolated yield: scale of the general procedure 150 μmol.

A short description of data set [2]: Fmoc solid-phase peptide synthesis; MBHA polystyrene resin; HATU/DIEA with HOBt; DIPC/HOAt for manual couplings. As to conditions: whole synthesis, scale 0.15 mmol.

With “His^1-Aib^2-Val-Gly-Thr-Phe-Thr-Ser-Asp-Lys^10(γGlu-γGlu-C16)-Ser-Lys-Tyr-Leu-Asp^15-Aib^16-Arg-Ala-Ala-Gln-Asp-Phe^22-Val^23-Gln-Trp^25-Leu-Nle-Asp-Thr-CONH2”, in data set [1], the “final HPLC purity” value is reported as more than 90% pure and the isolated yield entry is “Yield 20%”.
The like results for “Ac-His^1-Ala^2-Gln-Gly-Thr-Phe-Thr-Ser-Asp-Lys^10(γGlu-γGlu-C16)-Ser-Lys-Tyr-Leu-Asp^15-Glu^16-Arg-Ala-Ala-Gln-Asp-Phe^22-Val^23-Gln-Trp^25-Leu-Leu-Asp-Thr-CONH2” were, in that order, more than 90% pure and “Yield 27%”.
The like results for “His^1-D-Ser^2-Gln-Gly-Thr-Phe-Thr-Ser-Asp-Lys^10(γGlu-γGlu-C16)-Ser-Lys-Tyr-Leu-Asp-Ala-Arg-Ala-Ala-Gln-Asp-Phe^22-Val^23-Gln-Trp-Leu-Leu-Asp-Thr-CONH2” were, in that order, 95% pure and “Yield 30%”.
The like results for “HsQGTpFFTSDK(γEγEC16)SKYLDERAAQDFVQWLLDT-NH2” were, in that order, “above 90%” and 10%.
In the case of “His^1-D-Ser^2-Gln-Gly-Thr-Phe-Thr-Ser-Asp-Lys^10(γGlu-C16)-Ser-Lys-Tyr-Leu-Asp-Ala-Arg-Ala-Ala-Gln-Asp-Phe^22-Val^23-Gln-Trp-Leu-Leu-Asp-Thr-CONH2”, in data set [1], the “final HPLC purity” value was determined as 95% pure and the isolated yield entry is “Yield 21%”.
The like results for “His^1-D-Ser^2-Gln-Gly-Thr-Phe-Thr-Ser-Asp-pAF^10(γGlu-γGlu-C16)-Ser-Lys-Tyr-Leu-Asp^15-Ala^16-Arg-Ala-Ala-Gln-Asp-Phe^22-Val^23-Gln-Trp^25-Leu-Leu-Asp-Thr-CONH2” were, in that order, more than 90% pure and “Yield 10%”.
For “His^1-D-Ser^2-Gln-Gly-Thr-Phe-Thr-Ser-Asp-Lys^10(γGlu-γGlu-C16)-Ser-Lys-Tyr-Leu-Glu^15-Ala^16-Arg-Ala-Ala-Gln-Asp-Phe^22-Val^23-Gln-Trp^25-Leu-Leu-Asp-Thr-CONH2” the same measures were more than 90% pure and “Yield 20%”.
Regarding “His^1-D-Ser^2-Gln-Gly-Thr-Phe-Thr-Ser-Asp-Lys^10(γGlu-γGlu-C16)-Ser-Leu-Tyr-Leu-Asp-Glu^16-Arg-Ala^18-Ala-Gln-Asp-Phe^22-Val^23-Gln-Trp^25-Leu-Leu-Asp-Thr-NH2”, the isolated mass in data set [2] was 15 mg.
Consider “His^1-D-Ser-Gln-Gly-Thr-tβP-Thr-Ser-Asp-Lys^10(γGlu-γGlu-C16)-Ser-Lys-Tyr-Leu-Asp^15-Glu^16-Arg-Ala-Ala-Gln-Asp-Phe^22-Val^23-Gln-Trp^25-Leu-Leu-Asp-Thr-CONH2”, for which, in data set [1], the “final HPLC purity” value is more than 90% pure and the isolated yield entry is “Yield 12%”.
For the substance “His^1-D-Ser^2-Gln-Gly-Thr-Phe-Thr-Ser-Asp-Lys^10(γGlu-γGlu-C16)-Ser-Lys-Tyr-Leu-Asp-Val-Arg-Ala-Ala-Gln-Asp-Phe^22-Val^23-Gln-Trp-Leu-Leu-Asp-Thr-CONH2”, in data set [1], the “final HPLC purity” value is more than 90% pure and the isolated yield result was “Yield 20%”.
Take “His^1-D-Ser^2-Gln-Gly-Thr-Phe-Thr-Ser-Asp-Lys^10(γGlu-γGlu-C16)-Ser-Lys-Tyr-Leu-Asp^15-Glu^16-Arg-Ala-Ala-Gln-Asp-Phe^22-Val^23-Gln-Trp^25-Leu-Met2(O)-Asp-Thr-CONH2”: in data set [1], the “final HPLC purity” value was more than 90% and the isolated yield was 15%.
The like results for “HsQGTFTSDK(γEγEC16)SKYLDVRRAQDFVQWLLDT-NH2” were, in that order, 95% pure and “Yield 16%”.
For “His^1-amino-1cyclobutane^2-Gln-Gly-Thr-Phe-Thr-Ser-Asp-Lys^10(γGlu-γGlu-C16)-Ser-Lys-Tyr-Leu-Asp^15-Glu^16-Arg-Ala-Ala-Gln-Asp-Phe^22-Val^23-Gln-Trp^25-Leu-Leu-Asp-Thr-CONH2” the same measures were more than 90% and 18%.
